Holding throughout (test): SEC; analytical SEC on Superdex 200 10/300 at 4 °C in 25 mM Tris, 150 mM NaCl, 0.5 mM EDTA, 1 mM DTT, pH 7.5; 5 and 10 μM p50/RelAFL and p50/RelARHD (chains co-expressed and co-purified), 10 and 20 μM RelATAD; both purified
Assay [1] deals with N-terminal hexahistidine murine p50 (residues 39-350) (murine) (UniProt P25799).
For assay [2], the target named is RelATAD (RelA residues 340-549) with a C-terminal hexahistidine tag (murine) (UniProt Q04207).
The target in assay [3] is T1, p50_(39-350)/RelA_(19-549) heterodimer (murine), P25799.
T1 chain 1: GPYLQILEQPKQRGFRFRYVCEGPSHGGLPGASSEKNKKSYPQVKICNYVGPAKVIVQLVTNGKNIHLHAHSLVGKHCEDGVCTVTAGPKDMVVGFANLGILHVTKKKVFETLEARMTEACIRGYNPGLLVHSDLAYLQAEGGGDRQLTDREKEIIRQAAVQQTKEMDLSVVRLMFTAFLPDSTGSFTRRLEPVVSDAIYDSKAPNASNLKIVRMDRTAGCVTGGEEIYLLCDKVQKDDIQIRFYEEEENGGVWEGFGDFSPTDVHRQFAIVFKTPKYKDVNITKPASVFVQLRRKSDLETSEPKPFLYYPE
T1 chain 2: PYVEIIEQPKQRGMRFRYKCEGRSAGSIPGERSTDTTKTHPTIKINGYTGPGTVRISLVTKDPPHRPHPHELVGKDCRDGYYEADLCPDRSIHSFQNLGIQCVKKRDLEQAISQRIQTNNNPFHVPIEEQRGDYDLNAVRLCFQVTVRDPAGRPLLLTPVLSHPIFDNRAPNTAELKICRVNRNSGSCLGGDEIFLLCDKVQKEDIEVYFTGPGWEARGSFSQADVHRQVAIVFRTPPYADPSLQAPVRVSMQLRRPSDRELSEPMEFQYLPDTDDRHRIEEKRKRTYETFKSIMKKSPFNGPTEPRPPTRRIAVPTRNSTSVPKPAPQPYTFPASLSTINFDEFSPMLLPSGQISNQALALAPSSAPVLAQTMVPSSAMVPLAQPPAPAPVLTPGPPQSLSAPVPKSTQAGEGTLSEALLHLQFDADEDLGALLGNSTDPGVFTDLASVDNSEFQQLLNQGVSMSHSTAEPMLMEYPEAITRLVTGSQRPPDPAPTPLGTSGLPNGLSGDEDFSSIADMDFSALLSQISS
Particulars: remark: other sources report otherwise.

In assay [4] the target is T2, p50_(39-350)/RelA_(19-321) heterodimer (murine), P25799.
T2 chain 1: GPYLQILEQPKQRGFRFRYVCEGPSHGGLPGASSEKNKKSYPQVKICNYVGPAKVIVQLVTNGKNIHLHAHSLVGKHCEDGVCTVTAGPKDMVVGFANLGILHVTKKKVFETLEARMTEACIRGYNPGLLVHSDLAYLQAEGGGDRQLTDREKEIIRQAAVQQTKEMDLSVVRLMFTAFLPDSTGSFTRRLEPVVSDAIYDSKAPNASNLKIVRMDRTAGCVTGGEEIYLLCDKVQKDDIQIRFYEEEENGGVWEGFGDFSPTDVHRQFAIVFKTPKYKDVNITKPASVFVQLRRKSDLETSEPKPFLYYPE
T2 chain 2: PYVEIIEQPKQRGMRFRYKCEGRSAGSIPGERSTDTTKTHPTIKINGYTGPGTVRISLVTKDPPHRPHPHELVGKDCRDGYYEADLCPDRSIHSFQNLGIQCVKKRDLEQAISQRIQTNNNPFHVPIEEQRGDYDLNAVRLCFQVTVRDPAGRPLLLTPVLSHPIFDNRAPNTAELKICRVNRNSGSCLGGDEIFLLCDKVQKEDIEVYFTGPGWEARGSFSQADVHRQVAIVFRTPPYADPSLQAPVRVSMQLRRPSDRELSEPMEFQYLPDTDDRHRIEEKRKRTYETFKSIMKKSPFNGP
Particulars: remark: other sources report otherwise.

No constants are given. Whether binding was seen depends on the method and setting. Some entries that bind do so weakly or less than the wild type. For some assays here: Tags and fused reporters may be left off the sequences shown.

For “murine RelA residues 19 to 549 (from UniProt Q04207 19-549) (domain or fragment)”, in assay [1], the binding entry is listed as “binds”. Same read-out and setting: the value for “murine RelA residues 19-321 (from UniProt Q04207 19-321) (domain or fragment)” was “binds”.

B1: RelATAD (RelA residues 340-549) with a C-terminal hexahistidine tag (domain or fragment, UniProt Q04207 340-549)
chain: SVPKPAPQPYTFPASLSTINFDEFSPMLLPSGQISNQALALAPSSAPVLAQTMVPSSAMVPLAQPPAPAPVLTPGPPQSLSAPVPKSTQAGEGTLSEALLHLQFDADEDLGALLGNSTDPGVFTDLASVDNSEFQQLLNQGVSMSHSTAEPMLMEYPEAITRLVTGSQRPPDPAPTPLGTSGLPNGLSGDEDFSSIADMDFSALLSQISS
As to B1, in assay [2], the binding result was “no binding (tested: 20 μM)”.

B2: p50_(39-350)/RelA_(19-549) heterodimer, P25799 39-350; Q04207 19-549 (complex)
chain 1: GPYLQILEQPKQRGFRFRYVCEGPSHGGLPGASSEKNKKSYPQVKICNYVGPAKVIVQLVTNGKNIHLHAHSLVGKHCEDGVCTVTAGPKDMVVGFANLGILHVTKKKVFETLEARMTEACIRGYNPGLLVHSDLAYLQAEGGGDRQLTDREKEIIRQAAVQQTKEMDLSVVRLMFTAFLPDSTGSFTRRLEPVVSDAIYDSKAPNASNLKIVRMDRTAGCVTGGEEIYLLCDKVQKDDIQIRFYEEEENGGVWEGFGDFSPTDVHRQFAIVFKTPKYKDVNITKPASVFVQLRRKSDLETSEPKPFLYYPE
chain 2: PYVEIIEQPKQRGMRFRYKCEGRSAGSIPGERSTDTTKTHPTIKINGYTGPGTVRISLVTKDPPHRPHPHELVGKDCRDGYYEADLCPDRSIHSFQNLGIQCVKKRDLEQAISQRIQTNNNPFHVPIEEQRGDYDLNAVRLCFQVTVRDPAGRPLLLTPVLSHPIFDNRAPNTAELKICRVNRNSGSCLGGDEIFLLCDKVQKEDIEVYFTGPGWEARGSFSQADVHRQVAIVFRTPPYADPSLQAPVRVSMQLRRPSDRELSEPMEFQYLPDTDDRHRIEEKRKRTYETFKSIMKKSPFNGPTEPRPPTRRIAVPTRNSTSVPKPAPQPYTFPASLSTINFDEFSPMLLPSGQISNQALALAPSSAPVLAQTMVPSSAMVPLAQPPAPAPVLTPGPPQSLSAPVPKSTQAGEGTLSEALLHLQFDADEDLGALLGNSTDPGVFTDLASVDNSEFQQLLNQGVSMSHSTAEPMLMEYPEAITRLVTGSQRPPDPAPTPLGTSGLPNGLSGDEDFSSIADMDFSALLSQISS
As to B2, the binding result in assay [3] was “no binding (tested: 10 μM)”.

B3: p50_(39-350)/RelA_(19-321) heterodimer, P25799 39-350; Q04207 19-321 (complex)
chain 1: GPYLQILEQPKQRGFRFRYVCEGPSHGGLPGASSEKNKKSYPQVKICNYVGPAKVIVQLVTNGKNIHLHAHSLVGKHCEDGVCTVTAGPKDMVVGFANLGILHVTKKKVFETLEARMTEACIRGYNPGLLVHSDLAYLQAEGGGDRQLTDREKEIIRQAAVQQTKEMDLSVVRLMFTAFLPDSTGSFTRRLEPVVSDAIYDSKAPNASNLKIVRMDRTAGCVTGGEEIYLLCDKVQKDDIQIRFYEEEENGGVWEGFGDFSPTDVHRQFAIVFKTPKYKDVNITKPASVFVQLRRKSDLETSEPKPFLYYPE
chain 2: PYVEIIEQPKQRGMRFRYKCEGRSAGSIPGERSTDTTKTHPTIKINGYTGPGTVRISLVTKDPPHRPHPHELVGKDCRDGYYEADLCPDRSIHSFQNLGIQCVKKRDLEQAISQRIQTNNNPFHVPIEEQRGDYDLNAVRLCFQVTVRDPAGRPLLLTPVLSHPIFDNRAPNTAELKICRVNRNSGSCLGGDEIFLLCDKVQKEDIEVYFTGPGWEARGSFSQADVHRQVAIVFRTPPYADPSLQAPVRVSMQLRRPSDRELSEPMEFQYLPDTDDRHRIEEKRKRTYETFKSIMKKSPFNGP
Turning to B3, the binding result in assay [4] was “no binding (tested: 10 μM)”.

These data come from PMC9440430, “An intrinsically disordered transcription activation domain increases the DNA binding affinity and reduces the specificity of NFκB p50/RelA”.
